The campaign covered roughly 300,000 compounds. About 5,400 (1.8%) were called active. The inconclusive results got no clear call from the source; some entries with a clear call stand among them for comparison. Calls follow the shape of the full dose curve; tested in HEK293 cells. Where the call is inconclusive, the potency comes from a doubtful curve fit.
Experiment: qHTS for inhibitors of binding or entry into cells for Marburg Virus
Settings: Marburg virus pseudotyped entry inhibition, cell reporter; activity change, negative = inhibition: at 37.8 µM (top of the series) unless noted
% is scaled to controls: 0 for no effect and ±100 for the full control effect; potency is read from the fitted curve at half-maximal effect.

Row | Compound | activity change, negative = inhibition | Potency
1 | CC(=O)N1CCC(=NNc2ncc(C(F)(F)F)cc2Cl)CC1 | inconclusive: 19.7% [activator] [at 46.1 µM] | 
2 | Cc1ccc(S(=O)(=O)Nc2ccc3cc([N+](=O)[O-])ccc3c2[N+](=O)[O-])cc1 |  | inconclusive: 28.2 µM [inhibitor, single point]
3 | NC(C(=O)O)C1CC(Cl)=NO1 (configuration not stated) | inactive: -26.1% | 
4 | CN(C)CCNc1ccc(-c2n[nH]c(=O)c3ccccc23)cc1[N+](=O)[O-] |  | inconclusive: 7.94 µM [inhibitor, partial curve, poor fit]
5 | NCCOc1ccccc1Cc1ccccc1 |  | inconclusive: 11.2 µM [inhibitor, single point]
6 | CCOC(=O)c1ccc(NC(=O)N2CCN(Cc3cccc(F)c3)CC2)cc1 | inactive: 5.81% | 
7 | Clc1ccc2c(N/N=C/c3ccc(Br)cc3)ccnc2c1 |  | active: 3.26 µM
8 | Cn1c(=O)[nH]c2ncn(C)c2c1=O |  | inconclusive: 7.08 µM [inhibitor, partial curve]
9 | CCCC(O)(c1ccc(Cl)cc1)C(CN1CCOCC1)c1ccc(Cl)cc1 (configuration not stated) |  | active: 7.94 µM
10 | COc1ccc(C(C(=O)NC2CCCC2)N(Cc2cccnc2)C(=O)c2snc(C(N)=O)c2N)cc1 (configuration not stated) |  | inconclusive: 11.2 µM [inhibitor, partial curve, poor fit]
11 | O=C(NCc1ccccc1)c1nc(-c2cccs2)no1 |  | inconclusive: 7.08 µM [activator, partial curve, poor fit]
12 | Cc1nc2c(C(=O)N(C)Cc3ccccc3)c[nH]n2c(=O)c1Cc1ccc(Cl)cc1 |  | inconclusive: 35.5 µM [activator, single point]
13 | Cc1ccc(Cl)cc1N1CCN(C(=O)c2ccc3c(c2)N(Cc2ccccc2F)C(=O)c2ccccc2S3(=O)=O)CC1 |  | inconclusive: 2.82 µM [inhibitor, partial curve, poor fit]
14 | CCOC(CN=c1nc(N(C)C)ss1)OCC |  | inconclusive: 5.62 µM [inhibitor, single point]
15 | CCOc1ccccc1NC(=O)c1sc(-n2nc(C)c(CCC(C)C)c2C)nc1C |  | inconclusive: 12.6 µM [activator, partial curve, poor fit]
16 | Cc1nnc2n(-c3ccccc3)c(=O)c3c4c(sc3n12)COC(C(C)C)C4 (configuration not stated) | inactive: 13.6% | 
17 | O=C(NCC(c1ccccc1)c1ccccc1)c1nn(-c2ccccc2Cl)nc1CO | inactive: -27.8% [at 46.1 µM] | 
18 | Cc1ccc(-c2csc(NC(=O)C3CCN(S(=O)(=O)c4cccs4)CC3)n2)cc1 |  | inconclusive: 7.31 µM [inhibitor, partial curve]
19 | O=C(NCC1CCCO1)C1CCN(C2CCN(Cc3ccco3)CC2)CC1 (configuration not stated) |  | inconclusive: 11.2 µM [inhibitor, partial curve, poor fit]
20 | CCN1C=C(Cc2ccc(OC)cc2)C2=C(C1)C(c1ccc(OC)cc1)C(C#N)=C(N)O2 (configuration not stated) |  | inconclusive: 22.4 µM [inhibitor, partial curve, poor fit]
21 | O=C(NNC1=C(C(=O)C(F)(F)F)CCC1)c1cccnc1 |  | inconclusive: 31.6 µM [activator, single point]
22 | CCCSCCCNC(=O)CN1C(=O)COc2ccc(S(=O)(=O)N3CCC(C)CC3)cc21 | inactive: -1.36% [at 46.1 µM] | 
23 | CCN(CC)C(=O)/C(=C/c1cn(S(=O)(=O)N(C)C)c2ccccc12)NC(=O)c1ccc(OC)cc1 |  | inconclusive: 1.78 µM [inhibitor, partial curve, poor fit]
24 | CCCOc1ccc(C(=O)Nc2ccc(Cl)cn2)cc1 |  | active: 6.31 µM

Row | Compound | activity change, negative = inhibition | Potency
25 | COC(=O)C(C(C)C)N1CCc2c(C)nc3c(C#N)cnn3c21 (configuration not stated) | inactive: 0.427% [at 46.1 µM] | 
26 | CNc1ccc(Br)cc(C(=O)/C=C/c2cc(OC)ccc2OC)c1=O |  | inconclusive: 20.6 µM [inhibitor, single point]
27 | Cc1cc(C(=O)NCC(c2cccs2)N2CCOCC2)ccc1[N+](=O)[O-] (configuration not stated) |  | inconclusive: 12.6 µM [inhibitor, single point]
28 | Cc1cccc(N2CCN(C(=O)CC(NC(=O)c3ccccc3Cl)c3ccccc3)CC2)c1C (configuration not stated) |  | active: 11.6 µM
29 | O=C(NCCc1ccccn1)c1cc(-c2ccc(Cl)c(Cl)c2Cl)nc2ccccc12 |  | inconclusive: 12.6 µM [inhibitor, single point]
30 | COC(=O)Cc1c(C)c2ccc(OC3CCCCC3=O)c(C)c2oc1=O (configuration not stated) | inactive: -32.7% | 
31 | O=C(c1ccc(CN2CCc3ccccc3C2)cc1)N1CCN(c2ccccc2)CC1 |  | inconclusive: 0.355 µM [activator, partial curve, poor fit]
32 | COc1ccccc1CNC(=O)c1ccc2ccccc2n1 | inactive: 4.53% [at 46.1 µM] | 
33 | COc1cc(C(=O)NCc2ccncc2)cc(OC)c1OC |  | inconclusive: 5.62 µM [inhibitor, single point]
34 | S=C(Nc1cccc(Br)c1)N1CCn2cccc2C1c1cccnc1 (configuration not stated) |  | inconclusive: 11.2 µM [inhibitor, partial curve, poor fit]
35 | Cc1cc2c(c(=O)o1)C(c1cccs1)C(C#N)=C(N)O2 (configuration not stated) | inactive: 28.7% | 
36 | CC(/C=N/n1c(-c2cc(C)[nH]n2)n[nH]c1=S)=C\c1ccco1 |  | inconclusive: 6.31 µM [inhibitor, single point]
37 | Cc1ccccc1C1NC(c2ccccc2C)C([N+](=O)[O-])C(C)(C)C1[N+](=O)[O-] (configuration not stated) |  | inconclusive: 11.2 µM [inhibitor, partial curve, poor fit]
38 | O=c1[nH]c(=S)[nH]c(O)c1N=Nc1ccc2c(c1)OCCO2 |  | active: 11.2 µM
39 | CC1CCN(S(=O)(=O)c2ccc3ncn(CC(=O)N(C)Cc4ccccc4)c(=O)c3c2)CC1 |  | inconclusive: 14.1 µM [inhibitor, partial curve, poor fit]
40 | O=C(O)C1C2C=CC(O2)C1C(=O)NCCc1cccc(Cl)c1 (configuration not stated) |  | inconclusive: 1 µM [activator, full curve, poor fit]
41 | COc1ccc(NC(=O)N/C=C/c2ccccc2)cc1 | inactive: 9.52% [at 46.1 µM] | 
42 | CNc1nc(-c2c(C)[nH]c3ccc(OC)cc23)cs1 |  | inconclusive: 5.01 µM [activator, single point]
43 | Cc1ccc(-c2nnc(-c3ccc(Br)cc3)o2)o1 |  | inconclusive: 1.83 µM [activator, partial curve, poor fit]
44 | CC(=O)Nc1cccc(NC(=O)CSc2nc3c(=O)n(C)c(=O)n(C)c3n2C)c1 | inactive: -4.38% | 
45 | Cc1ccc2cc3c(nc2c1)OCC3 | inactive: 0.83% [at 46.1 µM] | 
46 | CCOC(=O)Nc1ccc2c(c1)N(C(=O)OC)c1ccccc1CC2 | inactive: -24.5% | 
47 | CCOc1cc(CNC(C)C(O)c2ccccc2)cc(Cl)c1OCC (configuration not stated) |  | inconclusive: 20.6 µM [inhibitor, partial curve, poor fit]
48 | Cc1ccc(C(=O)NCCNC(=O)c2cccnc2)cc1 | inactive: 3.41% [at 46.1 µM] | 

Row | Compound | activity change, negative = inhibition | Potency
49 | CN(C)c1ccc(C(O)P(=O)(OC2CCCCC2)OC2CCCCC2)cc1 (configuration not stated) |  | inconclusive: 25.1 µM [inhibitor, partial curve, poor fit]
50 | COc1ccc(NC(=O)N2CCN(c3nc4ccccc4n3C(C)C)CC2)cc1 |  | inconclusive: 11.2 µM [inhibitor, single point]
51 | CC12CC(c3ccccc3O1)N(C(=O)c1ccco1)C(=S)N2c1ccccc1 (configuration not stated) |  | active: 16.4 µM
52 | Cc1nc(N2CCCCC2)c2c(-c3cccs3)csc2n1 | inactive: 27.4% | 
53 | O=C(O)c1ccc(N/N=C/c2ccc(F)c(F)c2)cc1 |  | active: 7.08 µM
54 | Cc1ccc(OCCn2cc(/C=C(\C#N)C(=O)NCC3CCCO3)c3ccccc32)cc1C (configuration not stated) |  | inconclusive: 14.6 µM [inhibitor, partial curve, poor fit]
55 | CCc1ccc(NC(=O)c2cc3sc(Cl)cc3n2C)cc1 |  | inconclusive: 2.82 µM [activator, full curve, poor fit]
56 | CN1C(=O)NC(=O)C2(Cc3ccccc3N3CCOCC32)C1=O (configuration not stated) | inactive: 1.29% | 
57 | O=C(NC1CCCC1)C(c1ccccc1F)N(C(=O)c1csnn1)C1CC1 (configuration not stated) | inactive: -26.6% [at 46.1 µM] | 
58 | COc1cccc(CC(=O)OCC(=O)N(C)CC(=O)Nc2ccc(Cl)c(C(F)(F)F)c2)c1 | inactive: 3.42% | 
59 | O=C(NCCCCNC(=O)c1cccs1)c1cccs1 |  | inconclusive: 35.5 µM [inhibitor, single point]
60 | COc1ccc(NC(=O)CN2C(=O)NC3(CC(C)CC(C)(C)C3)C2=O)cc1S(=O)(=O)N1CCCCC1 (configuration not stated) |  | inconclusive: 35.5 µM [inhibitor, single point]
61 | COc1cccc(CNC(=O)CSc2c3c(nc4ccc(Cl)cc24)CCCC3)c1OC | inactive: -20.6% [at 46.1 µM] | 
62 | COc1cc(CN(C)c2ccc(S(=O)(=O)N3CCCC3)cn2)ccc1OC(F)F |  | inconclusive: 17.8 µM [inhibitor, single point]
63 | Clc1cccc(N2CCN(CCCN3CCN(c4ccccc4)CC3)CC2)c1 |  | inconclusive: 22.4 µM [inhibitor, single point]
64 | O/N=C/c1ccccc1OCc1ccccc1F | inactive: 10.2% | 
65 | Cc1ccnn1CCC(=O)O | inactive: -4.23% | 
66 | Cc1sc2nc(C3CC3)nc(N3CCN(C(=O)c4ccccc4F)CC3)c2c1C |  | inconclusive: 35.5 µM [inhibitor, single point]
67 | CCN1C(=O)NC(c2ccco2)C(C(C)=O)=C1C (configuration not stated) | inactive: 25.6% [at 14.2 µM] | 
68 | O=C(Nc1ccccc1)c1sc2cc(C(F)(F)F)cnc2c1-c1cccs1 |  | inconclusive: 6.31 µM [activator, single point]
69 | CC(=O)c1ccc(N2CCC(c3cc(-c4ccc(Cl)cc4)n[nH]3)CC2)c([N+](=O)[O-])c1 | inactive: -27.6% | 
70 | O=C(Cn1ncc2c3ccccc3n(Cc3ccccc3F)c2c1=O)NCCc1ccc(Cl)cc1 | inactive: -2.19% [at 46.1 µM] | 
71 | C(C#CCCCCCCCCC[n+]1ccccc1)#CCCCCCCCCC[n+]1ccccc1 |  | active: 2.51 µM
72 | O=c1c2c3c(sc2nc(NCCO)n1-c1ccccc1)CCCC3 | inactive: 1.31% | 

Compounds shown so far that contain an aryl thioether with sulfur outside any ring (2):
Row | Compound | activity change, negative = inhibition | Potency
44 | CC(=O)Nc1cccc(NC(=O)CSc2nc3c(=O)n(C)c(=O)n(C)c3n2C)c1 | inactive: -4.38% | 
61 | COc1cccc(CNC(=O)CSc2c3c(nc4ccc(Cl)cc24)CCCC3)c1OC | inactive: -20.6% [at 46.1 µM] | 
